The values below come from patent US20080312101A1.

No constants are given. Whether binding was seen depends on the method and setting. Sequences can lack the tags named with a protein.

For the test, the target named is Hepatitis C virus E2 protein (recombinant) (Hepatitis C virus). Nature of the test: phage panning on protein-coated ELISA wells, eluted phage counted as cfu. On the technique in general: ELISA stands for enzyme-linked immunosorbent assay.

B1: HAcp3* (HA tag fused to DIS linker2-modified M13 coat protein 3), displayed on recombinant phage (protein)
chain: QVKLLEYPYDVPDYATSGQAGQGGGGSPFVCEYQGQSSDLPQPPVNAGGGSGGGSGGGSEGGGSEGGGSEGGGSEGGGSGGGSGSGDFDYEKMANANKGAMTENADENALQSDAKGKLDSVATDYGAAIDGFIGDVSGLANGNGATGDFAGSNSQMAQVGDGDNSPLMNNFRQYLPSLPQSVECRPFVFGAGKPYEFSIDCDKINLFRGVFAFLLYVATFMYVFSTFANILRNKES
Take B1: the binding entry was “no binding”.
